This note sets out measurements from paper PMC4808027.

Chains of the proteins cited; added tags and fusions are not shown.
UniProt P11413: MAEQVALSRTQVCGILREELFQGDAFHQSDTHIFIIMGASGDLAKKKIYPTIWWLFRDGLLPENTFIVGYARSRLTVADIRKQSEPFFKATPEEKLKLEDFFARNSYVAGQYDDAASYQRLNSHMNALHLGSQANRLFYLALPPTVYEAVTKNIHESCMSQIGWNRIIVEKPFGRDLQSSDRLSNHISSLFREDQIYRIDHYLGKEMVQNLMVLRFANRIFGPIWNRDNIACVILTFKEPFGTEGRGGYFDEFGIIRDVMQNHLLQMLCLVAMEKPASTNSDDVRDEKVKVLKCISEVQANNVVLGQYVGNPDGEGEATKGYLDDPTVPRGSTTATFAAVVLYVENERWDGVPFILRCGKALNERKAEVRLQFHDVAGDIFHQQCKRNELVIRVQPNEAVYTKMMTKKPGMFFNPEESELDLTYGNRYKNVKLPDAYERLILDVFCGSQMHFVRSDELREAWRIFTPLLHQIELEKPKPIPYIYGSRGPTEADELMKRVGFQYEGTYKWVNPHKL
UniProt O95817: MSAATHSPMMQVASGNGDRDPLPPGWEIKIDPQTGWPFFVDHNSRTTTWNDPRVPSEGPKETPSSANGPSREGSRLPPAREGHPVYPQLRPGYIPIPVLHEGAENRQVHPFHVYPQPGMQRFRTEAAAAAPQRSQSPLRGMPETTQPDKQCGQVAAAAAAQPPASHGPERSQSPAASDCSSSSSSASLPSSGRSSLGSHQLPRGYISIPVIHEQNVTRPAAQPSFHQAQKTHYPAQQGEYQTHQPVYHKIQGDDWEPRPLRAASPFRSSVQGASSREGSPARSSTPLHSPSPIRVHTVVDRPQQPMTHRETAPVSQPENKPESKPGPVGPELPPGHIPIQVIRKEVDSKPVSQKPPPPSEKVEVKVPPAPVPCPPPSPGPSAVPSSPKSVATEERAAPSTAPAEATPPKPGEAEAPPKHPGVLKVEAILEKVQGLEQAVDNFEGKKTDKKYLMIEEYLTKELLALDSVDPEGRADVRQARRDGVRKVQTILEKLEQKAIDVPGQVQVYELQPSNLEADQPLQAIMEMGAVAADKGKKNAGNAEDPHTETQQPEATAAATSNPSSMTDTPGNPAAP

These are yes or no findings as the source states them, for the method shown. For some assays here: Binding seen in cells or lysates may run through a third protein. Some results given as binding are weak or reduced against the parent protein; the word gives no strength.

Test [1] deals with G6PD, endogenous in HCC cells (human (endogenous in Bel-7402, HepG2, SMMC-7721)) (UniProt P11413). Description: proximity ligation; Duolink in situ PLA of endogenous BAG3 and G6PD in Bel-7402, HepG2 and SMMC-7721 cells; in Bel-7402 also with 10 μM uridine and 10 μM hypoxathine for 8 h (interaction unaltered).
In test [2] the target is G6PD with HA or Myc epitope tag (UniProt P11413). Description: co-IP; empty or BAG3-transduced HCCs co-transfected with HA-tagged and Myc-tagged G6PD; immunoprecipitation with anti-Myc antibody.
In test [3] the target is G6PD, endogenous in HCC cells (human (endogenous in Bel-7402, HepG2, SMMC-7721)) (UniProt P11413). Description: native gel or EMSA; total proteins of HCCs infected with retrovirus containing empty or BAG3 construct, separated by native-PAGE, western blot for G6PD.
The target in test [4] is GST-G6PD recombinant protein (UniProt P11413). Description: pull-down; purified His-BAG3 incubated with GST-G6PD or GST immobilized on beads, western blot; also with increasing amounts of NADP+ (0, 0.1 and 1 mM), which suppressed the interaction in a dose-dependent manner; both purified.
The target of another test is Flag-tagged G6PD (UniProt P11413). Description: co-IP; HEK293 cells co-transfected with Myc-BAG3 and Flag-G6PD; reciprocal immunoprecipitation with Myc or Flag antibody and protein A-Sepharose, overnight at 4°C; lysis buffer 20 mM Tris-HCl, 150 mM NaCl, 2 mM EDTA, 1% Triton-X100.

“BAG3, endogenous in HCC cells (from UniProt O95817 1-575)”: the binding result in test [1] is “binds”.
On to “G6PD with HA or Myc epitope tag (from UniProt P11413 1-515) (enzyme)”, for which the binding result in test [2] is reported as “binds”.
As for “G6PD, endogenous in HCC cells (from UniProt P11413 1-515) (enzyme)”, the binding result in test [3] is on record as “binds”.
Regarding “His-BAG3 recombinant protein (from UniProt O95817 1-575)”, the binding entry in test [4] was “binds”.
For the substance “Myc-tagged BAG3 (from UniProt O95817 1-575)”, in the test with Flag-tagged G6PD, the binding result is “binds”.
